Data source: PubChem BioAssay AID504774 (Drosophila RNAi Screening Center, 2011)
Purpose: 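Fly genes whose loss alters survival after alkylation damage to DNA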 (primary screen). Cells: Drosophila Kc167 cells. Knock-down reagent: long dsRNA against Drosophila genes, about 0.25 µg dsRNA per well. Duration: about 6 days: 3 days knock-down, then 3 days with or without MMS. Treatment: methyl methanesulphonate 0.004% (w/v) for 3 days after knock-down. Read-out: 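ATP-dependent luminescence as a measure of live cells in MMS-exposed wells, quantile normalised within each plate, with replicate values also given as a mean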. Direction: mean viability with MMS: higher = more surviving cells after MMS.
In all, the deposit lists about 23,000 reagents; below is a random part of those with a known target gene and a result. 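Values are quantile-normalised luminescence on an arbitrary scale; higher means more cells surviving MMS.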 Names joined by + are all predicted targets of the reagent. Further read-outs or replicates are left out here.

PolQ (DNA polymerase theta) [DRSC17006] gave mean viability with MMS 3.43e6.
NiPp1 (Nuclear inhibitor of Protein phosphatase 1) [DRSC07307] scored mean viability with MMS 3.42e6.
Knock-down of CR31846 (retired record) [DRSC22272] gave: mean viability with MMS 3.58e6.
Against IntS3 (Integrator 3) [DRSC21215], the entry reads mean viability with MMS 3.46e6.
CG4709 [DRSC02772] scored mean viability with MMS 3.60e6.
With knock-down of Tango10 (Transport and Golgi organization 10) [DRSC19807], the record shows mean viability with MMS 3.27e6.
After knock-down of vis + achi [DRSC07277] the results were mean viability with MMS 3.62e6.
Knock-down of Itgbn (Integrin betanu subunit) [DRSC03493] gave: mean viability with MMS 3.49e6.
For igl (igloo) [DRSC07631] the deposit lists mean viability with MMS 3.57e6.
rdgBbeta [DRSC07672] gave mean viability with MMS 3.60e6.
With knock-down of CG5762 [DRSC15869] the results were mean viability with MMS 3.53e6.
Against Lkr (Leucokinin receptor) [DRSC09754] the deposit lists mean viability with MMS 3.63e6.
For Cyp313b1 (Cytochrome P450 313b1) [DRSC16629] the deposit lists mean viability with MMS 3.64e6.
Atpalpha (Na pump alpha subunit) [DRSC14119] showed mean viability with MMS 3.54e6.
Silencing of Exo70 (Exocyst 70) [DRSC10774] gave: mean viability with MMS 3.46e6.
nerfin-2 (nervous fingers 2) [DRSC14547] showed mean viability with MMS 3.54e6.
After knock-down of mu2 (mutator 2) [DRSC08726], the record shows mean viability with MMS 3.57e6.
Knock-down of mu2 (mutator 2) [DRSC21534] resulted in: mean viability with MMS 3.48e6.
Knock-down of CG34028 [DRSC17614] gave: mean viability with MMS 3.62e6.
For beta4GalNAcTA (beta1,4-N-acetylgalactosaminyltransferase A) [DRSC05944] the deposit lists mean viability with MMS 2.07e6.
Knock-down of CG10628 [DRSC02080] resulted in: mean viability with MMS 3.47e6.
Depletion of tadr (torn and diminished rhabdomeres) [DRSC03177] gave: mean viability with MMS 3.53e6.
Depletion of U2af50 (U2 small nuclear riboprotein auxiliary factor 50) [DRSC20297] resulted in: mean viability with MMS 3.13e6.
U2af50 (U2 small nuclear riboprotein auxiliary factor 50) [DRSC22867] gave mean viability with MMS 3.20e6.
Gr22b (Gustatory receptor 22b) [DRSC20911] showed mean viability with MMS 2.22e6.
pgc (polar granule component) [DRSC04099] gave mean viability with MMS 3.39e6.
Silencing of CG34133 [DRSC16319] came out at: mean viability with MMS 3.49e6.
After knock-down of CG34133 [DRSC22239], the record shows mean viability with MMS 3.49e6.
After knock-down of Sry-beta (Serendipity beta) [DRSC16868], the screen gave mean viability with MMS 3.54e6.
With knock-down of Tmtc1 (Transmembrane O-mannosyltransferase targeting cadherins 1) [DRSC00147], the screen gave mean viability with MMS 3.58e6.
With knock-down of Tmtc1 (Transmembrane O-mannosyltransferase targeting cadherins 1) [DRSC00151] the results were mean viability with MMS 3.49e6.
With knock-down of Tmtc1 (Transmembrane O-mannosyltransferase targeting cadherins 1) [DRSC00314] the results were mean viability with MMS 3.54e6.
For Tmtc1 (Transmembrane O-mannosyltransferase targeting cadherins 1) [DRSC00411], the entry reads mean viability with MMS 3.45e6.
Silencing of CG10919 [DRSC14283] gave: mean viability with MMS 3.57e6.
Knock-down of CG8441 [DRSC07180] gave: mean viability with MMS 3.52e6.

Records listed so far whose gene name begins with M or m (2):
mu2 (mutator 2) [DRSC08726] — mean viability with MMS: 3.57e6
mu2 (mutator 2) [DRSC21534] — mean viability with MMS: 3.48e6
